This is an account of results in US20040214757.

Data set [1] concerns the target T1, IgNF-A (NF-A1, ubiquitous octamer binding protein) (Homo sapiens) (UniProt P14859).
T1 sequence (looked up, limits assumed): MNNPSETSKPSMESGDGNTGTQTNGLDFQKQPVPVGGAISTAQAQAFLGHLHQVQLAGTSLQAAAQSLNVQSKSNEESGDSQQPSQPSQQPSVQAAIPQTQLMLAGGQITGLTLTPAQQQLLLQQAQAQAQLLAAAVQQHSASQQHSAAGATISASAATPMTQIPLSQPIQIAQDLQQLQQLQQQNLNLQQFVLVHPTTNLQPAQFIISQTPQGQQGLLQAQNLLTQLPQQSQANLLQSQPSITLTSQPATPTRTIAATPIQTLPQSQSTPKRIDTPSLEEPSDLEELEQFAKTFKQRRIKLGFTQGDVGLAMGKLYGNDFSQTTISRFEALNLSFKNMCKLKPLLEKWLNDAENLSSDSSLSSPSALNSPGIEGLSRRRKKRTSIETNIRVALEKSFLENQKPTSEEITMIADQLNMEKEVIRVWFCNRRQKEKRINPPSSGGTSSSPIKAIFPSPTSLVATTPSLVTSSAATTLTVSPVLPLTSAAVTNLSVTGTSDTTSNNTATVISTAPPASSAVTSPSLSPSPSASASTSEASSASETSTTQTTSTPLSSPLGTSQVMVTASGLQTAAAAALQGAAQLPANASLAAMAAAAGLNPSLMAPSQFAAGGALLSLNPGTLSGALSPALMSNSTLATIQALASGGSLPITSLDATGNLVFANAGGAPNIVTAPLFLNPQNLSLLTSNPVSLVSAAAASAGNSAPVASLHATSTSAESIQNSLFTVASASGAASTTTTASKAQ
The data set can be described thus: EMSA. Particulars: protein in an extract.

In data set [2] the test system is NF-kappaB (Homo sapiens). The data set can be described thus: EMSA. The following applies: protein in an extract, protein details: PHA/PMA-stimulated Jurkat nuclear extract.
The subject of data set [3] is lambda h3 MHC-element binding protein beta-galactosidase fusion (Homo sapiens). As to the kind of experiment: binding assay. The following applies: plaque filter screening; protein in a lysate after overexpression.
Data set [4] has as its target T2, Oct-2 truncated at EagI (cDNA 655-945) (Homo sapiens) (UniProt P09086).
T2 sequence: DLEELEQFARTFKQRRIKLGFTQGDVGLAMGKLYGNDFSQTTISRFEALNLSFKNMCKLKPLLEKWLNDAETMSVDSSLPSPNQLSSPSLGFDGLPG
As to the kind of experiment: EMSA. The following applies: protein translated in vitro.

Data set [5] deals with lambda h3 MHC-element binding protein beta-galactosidase fusion (Homo sapiens). The data set can be described thus: EMSA. Particulars: protein in a lysate after overexpression.
The target in data set [6] is T3, IgNF-B (NF-A2, lymphoid octamer binding protein) (Homo sapiens) (UniProt P09086).
T3 sequence (looked up, limits assumed): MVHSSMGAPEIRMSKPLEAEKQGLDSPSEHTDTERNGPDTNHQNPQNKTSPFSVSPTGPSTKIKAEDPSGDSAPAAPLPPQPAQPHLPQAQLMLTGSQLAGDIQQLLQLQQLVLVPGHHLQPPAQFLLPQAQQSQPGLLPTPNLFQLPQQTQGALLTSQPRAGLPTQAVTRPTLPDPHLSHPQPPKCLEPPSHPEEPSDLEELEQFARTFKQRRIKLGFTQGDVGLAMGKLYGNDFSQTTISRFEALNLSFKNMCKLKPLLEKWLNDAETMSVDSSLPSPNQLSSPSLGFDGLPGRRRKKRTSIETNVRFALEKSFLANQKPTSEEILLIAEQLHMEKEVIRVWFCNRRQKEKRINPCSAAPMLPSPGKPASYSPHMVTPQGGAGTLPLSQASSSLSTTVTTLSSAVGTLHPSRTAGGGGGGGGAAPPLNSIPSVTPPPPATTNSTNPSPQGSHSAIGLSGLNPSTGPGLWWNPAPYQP
The data set can be described thus: EMSA. Particulars: protein in an extract; protein details: BJAB nuclear extract.

For data set [7], the target named is T4, Oct-2 phage 3 beta-galactosidase fusion (Homo sapiens) (UniProt P09086).
T4 sequence (limits assumed): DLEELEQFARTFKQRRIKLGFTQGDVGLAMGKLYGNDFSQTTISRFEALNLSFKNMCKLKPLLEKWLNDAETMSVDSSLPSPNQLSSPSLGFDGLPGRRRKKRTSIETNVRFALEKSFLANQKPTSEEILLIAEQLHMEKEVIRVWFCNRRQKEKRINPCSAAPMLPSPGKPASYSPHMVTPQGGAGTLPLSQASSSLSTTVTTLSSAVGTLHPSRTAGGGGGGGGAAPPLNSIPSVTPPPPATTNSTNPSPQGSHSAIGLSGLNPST
The data set can be described thus: EMSA. The following applies: kappa promoter PvuII-EcoRI probe; protein in a lysate after overexpression.

Data set [8] deals with E factor (NF-muE3) (Homo sapiens). As to the kind of experiment: EMSA. Particulars: complex half-life less than 1 minute; protein in an extract; protein details: EW B lymphoma nuclear extract.
Data set [9] relates to NF-kappaB (Homo sapiens). As to the kind of experiment: binding assay. The following applies: CITED direct binding per footnote; protein in an extract; protein details: PHA/PMA-stimulated Jurkat nuclear extract; cited from earlier work.
Data set [10] concerns NF-kappaB (Mus musculus). The data set can be described thus: EMSA. Particulars: protein in an extract.
For data set [11], the target named is T4, Oct-2 phage 3 beta-galactosidase fusion (Homo sapiens). The data set can be described thus: competition with a labelled probe. The following applies: mutant slight competitor; protein in a lysate after overexpression; variant of MOPC-41 V kappa promoter octamer (VL).
The test system of data set [12] is NF-kappaB (Mus musculus). The data set can be described thus: competition with a labelled probe. The following applies: virus-infected 70Z/3; protein in an extract.

For some assays here: At least one result comes from cells or an extract, where the contact may be indirect. For some assays here: Weaker means in comparison with the reference protein, sequence or condition of that experiment. For some assays here: Where a protein sequence is shown, tags need not be part of it. For some assays here: For at least one entry, the source does not settle the construct or the ends of the probe. For some assays here: A negative result means that nothing was seen under these conditions.

Regarding “CGCACATGATTTGCATACTCATGA (double strand) [V17.2.25 VH promoter octamer]”, in [1], the binding result is recorded as “binds”.
With “GATCTGTGGGAAATTCCGTGGGAAATTCCGGATC (double strand) [PRDIIx2]”, the binding result in the data set on NF-kappaB (Homo sapiens) [2] was “binds”.
As to “ATGCAAAT (double strand) [OCTA octanucleotide probe]”, the binding result in data set [3] and in data set [4] was “no binding” each time.
On to “GATCCGGCTGCGGATTCCCAATCT (double strand) [mhc1 mutant probe]”, for which the binding result in data set [5] (variant of MHC probe (H-2Kb element)) is listed as “no binding”; with NF-kappaB (Homo sapiens) [2] (CITED, variant of MHC probe (H-2Kb element), cited from earlier work) it was “no binding”.
“TCTTAATAATTTGCATACCCTCAC (double strand) [MOPC-41 V kappa promoter octamer (VL)]”: the binding result in data set [1], in data set [6] and in data set [7] was “binds” in each case.
Take “CCTGGGTAATTTGCATTTCTAAAA (double strand) [JH-Cmu heavy chain enhancer octamer]”: in data set [1], the binding result is “binds”.
As to “AGCAGCTCATGTGGCAAGGCTA (double strand) [mu70 AluI-AluI enhancer fragment (E3)]”, the binding result in data set [8] was “binds”.
For the sequence “GGGGATTCCT (double strand) [mouse IL-2R alpha site]”, the binding result with NF-kappaB (Homo sapiens) [9] is reported as “binds”.
Regarding “AAATACTTTCCG (double strand) [mutant kappa EN]”, the binding result was “no binding” in [5] (variant of kappa EN (Ig kappa enhancer kappaB site)) and “no binding” in the data set with NF-kappaB (Mus musculus) [10] (mutant kappa enhancer fragment, variant of kappa EN (Ig kappa enhancer kappaB site)).
On to GGGATTCCCC (double strand) [H2-Kb site], for which the binding result in the data set with NF-kappaB (Homo sapiens) [9] is “binds”.
In the case of “AAATCCCCTAAAACGAGGGATAAA (double strand) [ori lambda O site probe]”, the binding result in data set [3] is listed as “no binding”.
For the sequence “GGGAATCTCC (double strand) [human IL-2R alpha site]”, in the data set with NF-kappaB (Homo sapiens) [9], the binding result is listed as “binds”.
Consider “AGGGGACTTTCCGG (double strand) [kappa EN (Ig kappa enhancer kappaB site)]”, for which the binding result (in data set [5]; in the data set on NF-kappaB (Mus musculus) [10] (DdeI-HaeIII k3 fragment)) was “binds” each time.
Regarding “GAGAAGTGAAAGTGGGAAATTCCTCTGAATAGAGAGAGGAC (double strand) [IRE (interferon-beta gene regulatory element)]”, the binding result with NF-kappaB (Homo sapiens) [2] and in the data set on NF-kappaB (Mus musculus) [10] (virus-infected 70Z/3) was “binds” each time.
For the sequence “TCATTTCCAT (double strand) [mutant octamer]”, the binding result in data set [11] is “binds more weakly”.
As to “GGGACTTCCC (double strand) [MHC class II E alpha d site]”, in the data set with NF-kappaB (Homo sapiens) [9], the binding result was “binds”.
On to GGGATTTCAC (double strand) [IL-2 site], for which the binding result in the data set with NF-kappaB (Homo sapiens) [9] is “binds”.
In the case of “GGGGATTTCC (double strand) [human Ig kappa enhancer kappaB site]”, in the data set with NF-kappaB (Homo sapiens) [9], the binding result is reported as “binds”.
Take “GATCCGGCTGGGGATTCCCCATCT (double strand) [MHC probe (H-2Kb element)]”: the binding result is “binds” in [5] (methylation interference symmetric) and “binds” in the data set on NF-kappaB (Homo sapiens) [2] (CITED, cited from earlier work).
In the case of “TCGACAGAGGGGACTTTCCGAGAGGCTCGA (double strand) [kappaB wild-type oligonucleotide]”, the binding result in the data set with NF-kappaB (Mus musculus) [12] and in the data set on NF-kappaB (Homo sapiens) [2] was “binds” each time.
